Assay results taken from article doi:10.1101/2021.10.21.465262.
Results are given in words; binding and its absence hold for the method and conditions named. Binding seen in cells or lysates may run through a third protein. Here binding means that the protein was enriched with, or labelled near, the bait; the list need not be complete. Where a sequence is shown, tags or fusion partners need not be part of it.

Amino acid sequences for entries named in this document (tags omitted). Residues count along the entry.
UniProt P52503, residues 21-116: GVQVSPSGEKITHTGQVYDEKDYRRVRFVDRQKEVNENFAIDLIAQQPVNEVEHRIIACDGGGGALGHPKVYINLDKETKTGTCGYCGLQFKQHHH
UniProt P56392, residues 22-80: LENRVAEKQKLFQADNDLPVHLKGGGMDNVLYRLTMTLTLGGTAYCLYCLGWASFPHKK
UniProt P56391: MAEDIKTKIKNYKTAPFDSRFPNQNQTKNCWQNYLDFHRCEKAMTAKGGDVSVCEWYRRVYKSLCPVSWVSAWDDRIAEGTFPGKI
UniProt Q9Z1P6: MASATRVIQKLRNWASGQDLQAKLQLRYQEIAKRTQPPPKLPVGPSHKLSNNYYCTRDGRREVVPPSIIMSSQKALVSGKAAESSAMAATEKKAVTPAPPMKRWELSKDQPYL
UniProt P03921: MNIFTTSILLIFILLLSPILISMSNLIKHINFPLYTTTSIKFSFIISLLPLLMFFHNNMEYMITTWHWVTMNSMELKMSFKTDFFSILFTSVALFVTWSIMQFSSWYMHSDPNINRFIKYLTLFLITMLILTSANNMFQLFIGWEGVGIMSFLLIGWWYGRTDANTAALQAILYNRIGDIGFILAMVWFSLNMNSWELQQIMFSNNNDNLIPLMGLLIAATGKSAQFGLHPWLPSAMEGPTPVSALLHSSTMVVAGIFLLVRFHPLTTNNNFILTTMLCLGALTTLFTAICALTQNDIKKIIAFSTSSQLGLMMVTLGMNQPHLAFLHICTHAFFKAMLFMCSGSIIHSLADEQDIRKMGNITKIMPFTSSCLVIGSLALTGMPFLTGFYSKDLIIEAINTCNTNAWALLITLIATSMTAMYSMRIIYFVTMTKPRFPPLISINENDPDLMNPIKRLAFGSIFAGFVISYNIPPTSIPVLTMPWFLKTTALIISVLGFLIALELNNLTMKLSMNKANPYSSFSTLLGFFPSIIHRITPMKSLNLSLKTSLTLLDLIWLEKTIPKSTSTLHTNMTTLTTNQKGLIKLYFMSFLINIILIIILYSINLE
UniProt Q8K199: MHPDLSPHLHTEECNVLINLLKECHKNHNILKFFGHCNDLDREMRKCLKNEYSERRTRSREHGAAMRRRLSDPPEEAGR

T1: FLAG-MTFP1 (Mitochondrial fission process 1) (UniProt Q9CRB8)
T1 sequence: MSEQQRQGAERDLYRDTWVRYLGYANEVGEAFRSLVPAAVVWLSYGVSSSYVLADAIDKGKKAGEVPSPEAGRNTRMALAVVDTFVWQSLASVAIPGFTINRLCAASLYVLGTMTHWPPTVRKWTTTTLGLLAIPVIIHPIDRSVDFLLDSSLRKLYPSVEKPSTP


target: T1, FLAG-MTFP1 (Mitochondrial fission process 1); assay: affinity purification with mass spectrometry

binding | Molecule
binds | NDUFS6 (from UniProt P52503 21-116)
binds | COX7A1 (from UniProt P56392 22-80)
binds | COX6B1 (from UniProt P56391 1-86)
binds | NDUFA7 (from UniProt Q9Z1P6 1-113)
binds | Mtnd5 (from UniProt P03921 1-607)
binds | CMC2 (from UniProt Q8K199 1-79)
binds | SCO2 (protein, UniProt Q8VCL2 42-255) QGPGLRTRLLITALFGAGLGWAWLAARAEKEQWRQQQRTEALRQAAVGQGDFSLLDHKGQPRCKADFRGQWVLMYFGFTHCPDICPDELEKLVQVVRKLEAEPDLPLVQPVFITVDPERDDVAAMARYVQEFHPRLLGLTGSTEQVAHASRNYRVYYSAGPKDEDQDYIVDHSIAIYLLNPDGLFTDYYGRSRSAEQIVESIRRHIAAFHSVLP
binds | USMG5 (protein, UniProt Q78IK2 1-58) MAGAESDGQFQFTGIKKYFNSYTLTGRMNCVLATYGGIALLVLYFKLRPKKTPAVKAT
binds | heat shock protein TRAP1 (protein, UniProt Q9CQN1 61-706) STQAAEDKEEESLHSIISNTEAVRGSVSKHEFQAETKKLLDIVARSLYSEKEVFIRELISNASDALEKLRHKLVCEGQVLPEMEIHLQTDAKKGTITIQDTGIGMTQEELVSNLGTIARSGSKAFLEALQNQAETSSKIIGQFGVGFYSAFMVADKVEVYSRSAAPESPGYQWLSDGSGVFEIAEASGVRPGTKIIIHLKSDCKDFASESRVQDVVTKYSNFVSFPLYLNGKRINTLQAIWMMDPKDISEFQHEEFYRYIAQAYDKPRFTLHYKTDAPLNIRSIFYVPEMKPSMFDVSRELGSSVALYSRKVLIQTKAADILPKWLRFIRGVVDSEDIPLNLSRELLQESALIRKLRDVLQQRLIKFFIDQSKKDAEKYAKFFEDYGLFMREGIVTTAEQDIKEDIAKLLRYESSALPAGQLTSLPDYASRMQAGTRNIYYLCAPNRHLAEHSPYYEAMKQKHTEVLFCYEQFDELTLLHLREFDKKKLISVETDIVVDHYKEEKFEDTSPADERLSEKETEDLMAWMRNALGSRVTNVKVTFRLDTHPAMVTVLEMGAARHFLRMQQLAKTQEERAQLLQPTLEINPRHTLIKKLCQLRESEPELAQLLVDQIYENAMIAAGLVDDPRAMVGRLNDLLVKVLEKH
binds | NDUFB4 (protein, UniProt Q9CQC7 1-129) MSGSKYKPAPLATLPSTLDPAEYDVSPETRRAQVERLSIRARLKREYLLQYNDPKRVSHIEDPALIRWTYARSANIYPNFRPTPKNSLLGAVAGFGPLIFWYYVFKTDRDRKERLIQEGKLDRKFNISY
binds | ADP/ATP translocase SLC25A4 (protein, UniProt P48962 1-298) MGDQALSFLKDFLAGGIAAAVSKTAVAPIERVKLLLQVQHASKQISAEKQYKGIIDCVVRIPKEQGFLSFWRGNLANVIRYFPTQALNFAFKDKYKQIFLGGVDRHKQFWRYFAGNLASGGAAGATSLCFVYPLDFARTRLAADVGKGSSQREFNGLGDCLTKIFKSDGLKGLYQGFSVSVQGIIIYRAAYFGVYDTAKGMLPDPKNVHIIVSWMIAQSVTAVAGLVSYPFDTVRRRMMMQSGRKGADIMYTGTLDCWRKIAKDEGANAFFKGAWSNVLRGMGGAFVLVLYDEIKKYV
binds | ATP5L (protein, UniProt Q9CPQ8 1-103) MAKFIRNFAEKAPSMVAAAVTYSKPRLATFWHYAKVELVPPTPAEIPTAIQSVKKIIQSAKTGSFKHLTVKEAVLNGLVATEVWMWFYIGEIIGKRGIVGYDV
binds | Ndufa10 (protein, UniProt Q99LC3 36-355) LRYGLLAAILGDKTTKKLHEYSRVITVDGNICSGKNKLAKEIAQQLGMKHYPEAGIQYSSTTTGDGRPLDIEFSGSCSLEKFYDDPKSNDGNSYRLQSWLYASRLLQYADALEHLLSTGQGVVLERSIYSDFVFLEAMYNQGYIRKQCVDHYNEIKRLTLPEYLPPHAVIYIDVPVPEVQSRIQKKGDPHEMKVTSAYLQDIENAYKKTFLPKMSEMCEVLVYDSWEAEDPTKVVEDIEYLKYNKGPWLKQDDWTFHYLRMLVQDKTEVLNYTTIPVYLPEITIGAHQGSRIYNSFRELPGRKYAPGYNAEVGDKWIWLK
binds | inorganic phosphate carrier SLC25A3 (protein, UniProt Q8VEM8 46-357) AVEEYSCEFGSMKYYALCGFGGVLSCGLTHTAVVPLDLVKCRMQVDPQKYKGIFNGFSITLKEDGVRGLAKGWAPTLIGYSMQGLCKFGFYEVFKALYSNILGEENTYLWRTSLYLASSASAEFFADIALAPMEAAKVRIQTQPGYANTLREAVPKMYKEEGLNAFYKGVAPLWMRQIPYTMMKFACFERTVEALYKFVVPKPRSECTKAEQLVVTFVAGYIAGVFCAIVSHPADSVVSVLNKEKGSTASQVLQRLGFRGVWKGLFARIIMIGTLTALQWFIYDSVKVYFRLPRPPPPEMPESLKKKLGLTE
